Reference: PubChem BioAssay AID743255 (National Center for Advancing Translational Sciences (NCATS), 2014)
Screen size: about 390,000 compounds; about 910 (0.23%) were called active. This list was built around the results that the source calls inconclusive (neither active nor inactive); the mix of calls is not that of the screen. Calls follow the shape of the dose curve; as a rule, active = well fitted inhibition curve with a large enough effect; inconclusive = small, poorly fitted or top-dose-only effect; inactive = no such curve, though single readings can be large or run the other way. Where the call is inconclusive, the potency comes from a doubtful curve fit.

Chains of the proteins cited; added tags and fusions are not shown. Lines headed by an entry give the natural chain unless they say otherwise; changes in a name come on top.
UniProt O94782: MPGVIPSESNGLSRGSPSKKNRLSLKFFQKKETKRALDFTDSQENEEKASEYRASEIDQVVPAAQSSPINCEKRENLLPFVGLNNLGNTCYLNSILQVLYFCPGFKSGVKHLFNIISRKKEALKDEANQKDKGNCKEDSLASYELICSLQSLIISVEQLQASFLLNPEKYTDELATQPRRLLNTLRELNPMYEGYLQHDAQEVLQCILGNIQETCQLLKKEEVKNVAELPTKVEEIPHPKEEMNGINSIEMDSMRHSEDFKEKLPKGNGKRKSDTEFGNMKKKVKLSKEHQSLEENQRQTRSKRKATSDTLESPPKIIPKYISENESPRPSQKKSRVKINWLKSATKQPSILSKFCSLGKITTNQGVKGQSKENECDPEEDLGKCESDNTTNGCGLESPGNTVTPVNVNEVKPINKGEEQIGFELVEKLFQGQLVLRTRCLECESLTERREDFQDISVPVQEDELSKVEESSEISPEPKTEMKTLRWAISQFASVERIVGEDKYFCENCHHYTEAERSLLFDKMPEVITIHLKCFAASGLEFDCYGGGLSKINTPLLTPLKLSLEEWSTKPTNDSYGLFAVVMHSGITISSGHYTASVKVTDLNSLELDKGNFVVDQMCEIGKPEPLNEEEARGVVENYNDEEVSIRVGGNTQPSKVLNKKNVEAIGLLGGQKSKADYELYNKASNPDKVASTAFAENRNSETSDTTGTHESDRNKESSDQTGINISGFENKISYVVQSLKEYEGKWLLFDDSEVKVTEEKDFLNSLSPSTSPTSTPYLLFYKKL

These molecules were tested against Ubiquitin carboxyl-terminal hydrolase 1 (Homo sapiens) (UniProt O94782) (assay: Inhibitors of USP1/UAF1: Primary Screen). Conditions: recombinant USP1/UAF1, Ub-Rhodamine cleavage fluorescence; series mostly up to 57.1 µM.
Outline: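 USP1/UAF1 complex at 1 nM was preincubated with compound for 15 min at room temperature, then Ub-Rho substrate (150nM final) was added. Fluorescence (480/540 nm) was read kinetically, 6 reads every 60 seconds.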
Also: nearly all actives have a fitted effect of over 60% in size.
Potency is read from the fitted curve at half-maximal effect.

Compound	Potency
CCOc1ccc(N2C(=O)Cc3ccccc3C2=O)cc1	inconclusive: 17.8 µM [inhibitor, partial curve]
COc1cc(OC)cc(-n2nnnc2SCC(=O)N2CCCC2)c1	inactive
COc1ccc(OCc2cc(C(=O)NC(C)c3cnn(C)c3)no2)c(Cl)c1 (configuration not stated)	inconclusive: 14.1 µM [inhibitor, partial curve]
O=C(Nc1ccc2c(c1)OCO2)c1cc(-c2ccccc2Cl)on1	inconclusive: 44.7 µM [inhibitor, partial curve, poor fit]
COc1cccc(/C=N/NC(=O)C(=O)N2CCCC2)c1	inconclusive: 20 µM [inhibitor, partial curve, poor fit]
Cc1cc(/C=N/NC(N)=S)c(O)c(/C=N/NC(N)=S)c1	inconclusive: 7.08 µM [inhibitor, partial curve]
COC/C=C/C1=CC(=O)C[C@H](c2ccc3c(c2)OCO3)C1	inactive
O=C(NCC(c1ccco1)N1CCN(c2ccccc2F)CC1)C(=O)NC1CC1 (configuration not stated)	inconclusive: 0.708 µM [inhibitor, full curve]
COc1cc(C)c(C(=O)Oc2cc(C)c(C(=O)O)c(O)c2C)c(O)c1C(=O)O	inconclusive: 39.8 µM [inhibitor, partial curve]
CCc1ccc(/C=C2\SC(=S)N(CCCC(=O)N3CCCC3)C2=O)cc1	inconclusive: 2.82 µM [inhibitor, full curve, poor fit]
CCc1c(C)sc2nc3c(C(=O)N4CCOCC4)cc(C(=O)c4ccccc4O)cn3c(=O)c12	inactive
Cc1ccc2[nH]c(O)c(N=Nc3ccccc3C)c2c1	inconclusive: 12.6 µM [inhibitor, partial curve, poor fit]
Cc1cccc(OCC(O)CN2CCN(S(=O)(=O)c3ccc(C)cc3C)CC2)c1 (configuration not stated)	inconclusive: 28.2 µM [inhibitor, single point]
CS(=O)(=O)N(CCc1ccccc1)CC(=O)N1CCN(c2ccccc2)CC1	inactive
CC(=O)Nc1cccc(C(=O)NC2CCCc3c2cnn3-c2ccc(C(C)(C)C)cc2)c1 (configuration not stated)	inconclusive: 2.51 µM [inhibitor, full curve, poor fit]
C[C@@H]1CN([C@@H](C)CO)C(=O)CCCn2nncc2CO[C@@H]1CN(C)C(=O)Nc1cccc2ccccc12	inconclusive: 14.1 µM [inhibitor, partial curve, poor fit]
COc1ccccc1C(=O)Nc1cc2c(cc1N1CCOCC1)n(C)c(=O)n2C	inconclusive: 0.794 µM [inhibitor, full curve, poor fit]
NC(=O)N/N=C/c1cn(-c2ccccc2)nc1-c1ccccc1	inactive
O=C(N/N=C/c1ccc([N+](=O)[O-])o1)c1ccncc1	inactive
O=C(COC(=O)c1cccnc1Cl)Nc1cccc(S(=O)(=O)N2CCCCC2)c1	inconclusive: 12.6 µM [inhibitor, partial curve, poor fit]
CCOC(=O)N1CCC(NC(=O)c2cc3c(-c4ccc(Cl)cc4)nn(C)c3s2)CC1	inconclusive: 0.316 µM [inhibitor, full curve, poor fit]

Compound	Potency
CC(C)NC(=O)N(C)C[C@H]1Oc2c(NC(=O)C3CCCCC3)cccc2C(=O)N([C@H](C)CO)C[C@@H]1C	inconclusive: 35.5 µM [inhibitor, partial curve, poor fit]
COc1ccccc1CNC(=O)c1cc(-c2ccccc2)nn1Cc1cc(C)no1	inactive
O=C(NCc1cccc(F)c1)c1ccc(-n2cnc3cccnc32)cc1	inconclusive: 2.51 µM [inhibitor, full curve]
Cc1cccc(Cn2cc(C(=O)Nc3ccc(F)c(C(F)(F)F)c3)ccc2=O)c1	inconclusive: 22.4 µM [inhibitor, partial curve, poor fit]
CC(CC(F)(F)F)N1CCC(n2nccc2NC(=O)CCOc2ccccc2)CC1 (configuration not stated)	inactive
FC(F)(F)c1nc(=S)c2ccccc2[nH]1	inactive
CCOC(=O)c1sc(=S)n(-c2ccc(F)c(F)c2)c1N	inactive
Cc1ccc(SCC(=O)OCC(=O)N(CCC#N)c2ccccc2)cc1C	inconclusive: 3.55 µM [inhibitor, full curve, poor fit]
CCn1c(=O)c2cc(C(=O)NCCc3cc(OC)ccc3OC)sc2c2ccccc21	inconclusive: 15.8 µM [inhibitor, partial curve, poor fit]
CCOc1ccc2nc(NC(=O)CSc3nnnn3C3CCCCC3)sc2c1	inconclusive: 28.2 µM [inhibitor, partial curve]
CC(=O)c1ccc(NC(=O)c2c3c(nc4ccccc24)C(=O)N(C2CCCCC2)C3)cc1	inconclusive: 0.355 µM [inhibitor, full curve]
CCOC(=O)C1CCN(c2ccc(-c3cccs3)nn2)CC1	inactive
CCOc1ccc(C(=O)c2nc3c(n2O)CCCCC3)cc1	inactive
Cc1sc(N/N=C/c2cccnc2)nc1-c1ccc(Cl)cc1	inactive
Cc1ccc(-c2cc(C(F)(F)F)n3nc(C(=O)Nc4ccc(Cl)c(C(F)(F)F)c4)cc3n2)cc1	inconclusive: 0.355 µM [inhibitor, full curve, poor fit]
FC(F)(F)Oc1ccccc1-c1nnc(-c2cccc(C(F)(F)F)c2)o1	inconclusive: 35.5 µM [inhibitor, single point]
O=C(c1ccc2c(c1)CCN2S(=O)(=O)c1ccccc1)N1CCN(c2ccc(F)cc2)CC1	inconclusive: 2.82 µM [inhibitor, full curve, poor fit]
COc1ccc(OCCn2cc(C(=O)C3CCCCC3)c3ccccc32)cc1	inconclusive: 0.282 µM [inhibitor, full curve, poor fit]
CCOC(=O)C1CCN(c2cc(=O)n(-c3ccc(OC)cc3)c(=O)[nH]2)CC1	inconclusive: 50.1 µM [inhibitor, single point]
COc1ccc(-c2onc(C)c2C)cc1S(=O)(=O)N1c2ccccc2CC1C (configuration not stated)	inactive
COc1ccc(C2Sc3ccccc3NC3=C2C(=O)c2ccccc23)c(OC)c1OC (configuration not stated)	inconclusive: 10 µM [inhibitor, partial curve, poor fit]

Part of the list above in order of count of non-hydrogen atoms, smallest number first:
Compound	Potency
CCOC(=O)c1sc(=S)n(-c2ccc(F)c(F)c2)c1N	inactive
CCOc1ccc(N2C(=O)Cc3ccccc3C2=O)cc1	inconclusive: 17.8 µM [inhibitor, partial curve]
Cc1cccc(Cn2cc(C(=O)Nc3ccc(F)c(C(F)(F)F)c3)ccc2=O)c1	inconclusive: 22.4 µM [inhibitor, partial curve, poor fit]
